Measured values reported in the supplement of paper PMC10849652.
Some of the results follow. Residues, ends and D or L forms follow the SMILES beside them. *: point of attachment. Cbz = O=C(OCc1ccccc1)*

Amino acid sequences for entries named in this document (tags omitted). A change or cut given only in a name is not applied to a line headed by its entry.
UniProt Q70UQ0: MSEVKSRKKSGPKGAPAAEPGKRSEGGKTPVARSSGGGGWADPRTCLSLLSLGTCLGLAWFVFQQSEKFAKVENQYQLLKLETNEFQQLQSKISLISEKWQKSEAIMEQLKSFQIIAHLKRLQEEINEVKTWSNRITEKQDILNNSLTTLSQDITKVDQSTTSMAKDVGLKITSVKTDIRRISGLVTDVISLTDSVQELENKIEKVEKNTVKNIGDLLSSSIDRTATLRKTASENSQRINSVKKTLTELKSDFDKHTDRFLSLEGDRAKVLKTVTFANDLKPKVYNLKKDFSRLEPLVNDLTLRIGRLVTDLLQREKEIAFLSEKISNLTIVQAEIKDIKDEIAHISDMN
UniProt Q9NVM9, whole entry, looked up: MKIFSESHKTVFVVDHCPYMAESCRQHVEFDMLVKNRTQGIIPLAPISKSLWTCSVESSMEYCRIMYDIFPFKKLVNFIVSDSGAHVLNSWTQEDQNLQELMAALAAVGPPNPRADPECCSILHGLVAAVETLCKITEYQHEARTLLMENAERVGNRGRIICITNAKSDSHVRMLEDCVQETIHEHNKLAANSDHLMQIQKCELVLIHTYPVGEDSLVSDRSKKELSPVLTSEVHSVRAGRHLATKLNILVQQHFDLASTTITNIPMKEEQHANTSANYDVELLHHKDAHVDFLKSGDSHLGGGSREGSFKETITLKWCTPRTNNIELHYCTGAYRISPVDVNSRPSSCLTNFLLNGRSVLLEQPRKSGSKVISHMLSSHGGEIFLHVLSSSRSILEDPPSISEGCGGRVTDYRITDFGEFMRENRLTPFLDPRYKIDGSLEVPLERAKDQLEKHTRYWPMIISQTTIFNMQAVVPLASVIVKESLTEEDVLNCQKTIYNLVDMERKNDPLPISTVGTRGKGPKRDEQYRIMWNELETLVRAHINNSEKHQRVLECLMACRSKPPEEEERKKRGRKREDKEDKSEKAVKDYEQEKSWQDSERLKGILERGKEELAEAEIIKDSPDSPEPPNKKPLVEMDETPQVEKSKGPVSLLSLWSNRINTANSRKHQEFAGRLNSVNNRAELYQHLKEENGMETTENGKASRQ
UniProt P05556, whole entry, looked up: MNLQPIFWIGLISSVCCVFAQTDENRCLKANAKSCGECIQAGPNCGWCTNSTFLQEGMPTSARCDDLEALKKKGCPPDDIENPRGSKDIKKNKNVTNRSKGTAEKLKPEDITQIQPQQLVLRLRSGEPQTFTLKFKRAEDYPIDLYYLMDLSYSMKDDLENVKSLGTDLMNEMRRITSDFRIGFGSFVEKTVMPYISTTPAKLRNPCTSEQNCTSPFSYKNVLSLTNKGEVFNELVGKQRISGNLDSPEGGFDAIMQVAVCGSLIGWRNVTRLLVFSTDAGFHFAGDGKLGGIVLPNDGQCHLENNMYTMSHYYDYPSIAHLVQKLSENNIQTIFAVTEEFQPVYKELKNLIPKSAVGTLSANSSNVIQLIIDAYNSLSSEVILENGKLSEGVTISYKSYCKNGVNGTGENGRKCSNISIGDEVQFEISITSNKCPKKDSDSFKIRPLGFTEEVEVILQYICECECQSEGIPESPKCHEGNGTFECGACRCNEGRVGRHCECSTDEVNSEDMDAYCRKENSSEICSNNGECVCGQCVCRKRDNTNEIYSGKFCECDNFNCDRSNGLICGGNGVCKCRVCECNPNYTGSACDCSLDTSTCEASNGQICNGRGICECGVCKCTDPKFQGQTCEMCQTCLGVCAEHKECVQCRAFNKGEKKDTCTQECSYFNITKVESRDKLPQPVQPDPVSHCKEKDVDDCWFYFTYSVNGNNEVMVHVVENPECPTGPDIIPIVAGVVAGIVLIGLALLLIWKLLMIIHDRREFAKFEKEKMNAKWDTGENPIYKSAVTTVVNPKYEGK
UniProt Q9NZI8, whole entry, looked up: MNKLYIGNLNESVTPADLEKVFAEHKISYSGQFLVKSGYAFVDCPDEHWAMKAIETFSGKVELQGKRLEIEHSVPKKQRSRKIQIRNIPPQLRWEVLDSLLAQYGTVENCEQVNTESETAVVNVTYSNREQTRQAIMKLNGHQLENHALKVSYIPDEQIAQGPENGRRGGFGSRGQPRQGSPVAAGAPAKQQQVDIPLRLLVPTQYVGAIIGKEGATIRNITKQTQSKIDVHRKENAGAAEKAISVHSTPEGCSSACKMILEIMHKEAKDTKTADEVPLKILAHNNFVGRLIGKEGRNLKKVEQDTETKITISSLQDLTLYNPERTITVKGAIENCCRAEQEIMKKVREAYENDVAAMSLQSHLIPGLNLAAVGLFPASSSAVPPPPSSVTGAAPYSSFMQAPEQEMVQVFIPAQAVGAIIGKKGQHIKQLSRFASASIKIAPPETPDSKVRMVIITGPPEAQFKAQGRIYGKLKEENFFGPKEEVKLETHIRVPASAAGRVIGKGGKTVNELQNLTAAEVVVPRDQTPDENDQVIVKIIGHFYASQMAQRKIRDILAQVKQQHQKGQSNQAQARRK
UniProt Q8WZA9: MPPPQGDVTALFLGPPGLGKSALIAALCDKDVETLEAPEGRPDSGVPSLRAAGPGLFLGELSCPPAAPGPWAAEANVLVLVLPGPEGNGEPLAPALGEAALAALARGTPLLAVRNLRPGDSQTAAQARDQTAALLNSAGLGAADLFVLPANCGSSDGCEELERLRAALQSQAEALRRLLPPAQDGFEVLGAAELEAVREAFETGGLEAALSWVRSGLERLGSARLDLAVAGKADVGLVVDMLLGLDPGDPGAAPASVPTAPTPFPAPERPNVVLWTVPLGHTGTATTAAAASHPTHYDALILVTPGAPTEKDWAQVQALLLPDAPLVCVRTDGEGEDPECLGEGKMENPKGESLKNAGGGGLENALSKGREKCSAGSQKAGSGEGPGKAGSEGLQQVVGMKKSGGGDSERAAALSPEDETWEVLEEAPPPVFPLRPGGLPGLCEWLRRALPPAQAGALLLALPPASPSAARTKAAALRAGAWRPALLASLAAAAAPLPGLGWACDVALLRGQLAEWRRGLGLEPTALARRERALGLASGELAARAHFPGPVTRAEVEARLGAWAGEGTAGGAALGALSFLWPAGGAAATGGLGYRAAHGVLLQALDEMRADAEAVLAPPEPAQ
UniProt P0DMQ5: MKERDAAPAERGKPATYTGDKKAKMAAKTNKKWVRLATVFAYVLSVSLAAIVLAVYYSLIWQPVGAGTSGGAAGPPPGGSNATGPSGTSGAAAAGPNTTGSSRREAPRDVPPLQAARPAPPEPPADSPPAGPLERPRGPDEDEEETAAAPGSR
UniProt O00458: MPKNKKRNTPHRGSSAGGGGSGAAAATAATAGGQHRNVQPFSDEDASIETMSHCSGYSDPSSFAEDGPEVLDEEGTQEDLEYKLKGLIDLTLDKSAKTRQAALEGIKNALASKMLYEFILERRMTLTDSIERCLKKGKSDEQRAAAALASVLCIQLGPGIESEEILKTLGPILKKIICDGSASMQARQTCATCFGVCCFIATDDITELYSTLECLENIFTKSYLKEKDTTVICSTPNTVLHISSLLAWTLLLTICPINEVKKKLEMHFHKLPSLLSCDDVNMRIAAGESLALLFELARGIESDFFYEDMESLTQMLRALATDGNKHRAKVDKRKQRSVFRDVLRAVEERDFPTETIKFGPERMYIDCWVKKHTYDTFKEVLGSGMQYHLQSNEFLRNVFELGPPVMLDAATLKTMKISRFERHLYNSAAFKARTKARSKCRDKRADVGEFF

How the values were obtained:
Test in all cases: log2 fold change, soluble protein after heating vs DMSO (PISA); higher = thermal stabilisation; K562 cells, 10 uM, 30 min; active = over 0.2 and 3.5 SD of the protein, either way, in both replicates (recomputed)
[1] = compound: C#Cc1cccc(Nc2ncnc3cc(OCCOC)c(OCCOC)cc23)c1 [erlotinib]
Summary of the method: (§1)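 For each measurement, 10 μM compound was applied for 30 min to K562 cells at 2×10^6 cells/mL. Aliquots were heated for 3 min across 48°C-58°C, pooled, and extracted in PBS with 0.5% NP-40 at 4°C; the supernatant after 21,000xg for 90 min was soluble protein. This was quantified by TMTpro 16plex LC-MS/MS with channel sums equalised, and thermal stability was reported relative to control samples from duplicates, on a log2 fold-change scale.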

[2] = compound: C/C(=N\NC(=O)C1=CC(=CC=C1)S(=O)(=O)N2CCOCC2)/C3=C(C=CC(=C3)Cl)O
Summary of the method: as §1

[3] = compound: C1=CC(=C(C=C1Cl)C2=NC3=NC=CN=C3C(=N2)NC4=CC=NC=C4)F
Summary of the method: as §1

[4] = compound: C1=CC(=CC=C1C2=NC3=C(N2)C=C(C=C3)C(=O)N)OC4=CC=C(C=C4)Cl
Summary of the method: as §1

[5] = compound: C1=CC2=C(C=CC(=C2)/C=C\3/C(=O)NC(=NCC4=CC=CS4)S3)N=C1
Summary of the method: as §1

[6] = compound: C1=CC2=NC=CN=C2C=C1/C=C/3\C(=O)NC(=O)S3
Summary of the method: as §1

[7] = compound: C1=CC=C(C=C1)C2=NC(=C(N2)C3=CC=NC=C3)C4=CC(=C(C=C4)Cl)O
Summary of the method: as §1

[8] = compound: C1=CC=C2C(=C1)C3=NNC4=CC=CC(=C43)C2=O
Summary of the method: as §1

[9] = compound: C1CCN(C1)C(=O)NC2=CC=CC(=C2)NC3=NC=C(C(=N3)NCCC4=CN=CN4)Br
Summary of the method: as §1

[10] = compound: C1CN(CCC1(CC2=CC=C(C=C2)Cl)N)C3=NC=NC4=C3C=CN4
Summary of the method: as §1

[11] = compound: C1COCCN1CCN2C3=CC=CC=C3N=C2NC(=O)C4=CC(=CC=C4)[N+](=O)[O-] [IRAK-1-4 Inhibitor I]
Summary of the method: as §1

[12] = compound: C=CC(=O)N1CCC[C@@H](n2nc(-c3ccc(Oc4ccccc4)cc3)c3c(N)ncnc32)C1 [ibrutinib]
Summary of the method: as §1

[13] = compound: CC(=O)c1cnc2ccc(-c3cc(Cl)c(O)c(Cl)c3)nc2c1N[C@H]1CC[C@H](CN(C)C)CC1
Summary of the method: as §1

[14] = compound: CC(C)(C)Cn1c(N)nc2ccc(-c3[nH]c(C(C)(C)C)nc3-c3ccc(F)cc3)nc21 [ralimetinib]
Summary of the method: as §1

[15] = compound: CC(C)(O)CC(=O)NCCn1ccc2ncnc(Nc3ccc(Oc4cccc(C(F)(F)F)c4)c(Cl)c3)c21
Summary of the method: as §1

[16] = compound: CC(C)C1=C2N=C(C=C(N2N=C1)NCC3=CC=CC=C3)NCCCCCCN
Summary of the method: as §1

[17] = compound: CC(C)C[C@@H](C=O)NC(=O)[C@H](CC(C)C)NC(=O)[C@H](CC(C)C)NC(=O)OCc1ccccc1
Summary of the method: as §1

[18] = compound: CC(C)N(C[C@H]1O[C@@H](n2cnc3c(N)ncnc32)[C@H](O)[C@@H]1O)[C@H]1C[C@@H](CCc2nc3cc(C(C)(C)C)ccc3[nH]2)C1 [pinometostat]
Summary of the method: as §1

[19] = compound: CC1=C(C(CC(=O)N1)C2=CC=C(C=C2)C(F)(F)F)C(=O)NC3=C(C=C4C(=C3)C=NN4)F
Summary of the method: as §1

[20] = compound: CC1=C(C2=C(C=C1)C(=O)C3=CC=CC=C3N2CCCN)C
Summary of the method: as §1

Measured: log2 fold change

IKBIP (UniProt Q70UQ0)
inactive: [1] -0.057 | [2] 0.033 | [3] -0.014 | [4] -0.001 | [5] 0.072 | [6] -0.012 | [7] -0.042 | [8] -0.039 | [9] 0.03 | [10] -0.005 | [11] 0.018 | [12] 0.006 | [13] -0.031 | [14] 0.005 | [15] 0.008 | [16] 0.001 | [17] -0.006 | [18] 0.033 | [19] -0.005 | [20] 0.032

INTS13 (UniProt Q9NVM9)
inactive: [1] 0.009 | [2] 0.02 | [3] 0.061 | [4] 0.057 | [5] 0.056 | [6] -0.011 | [7] -0.035 | [8] 0.01 | [9] -0.009 | [10] 0.041 | [11] -0.001 | [12] 0.023 | [13] -0.101 | [14] -0.065 | [15] -0.094 | [16] -0.142 | [17] 0.001 | [18] -0.019 | [19] -0.037 | [20] 0.095

ITGB1 (UniProt P05556)
inactive: [1] -0.004 | [2] -0.009 | [3] 0.025 | [4] -0.008 | [5] -0.048 | [6] 0.003 | [7] 0.017 | [8] 0.01 | [9] 0.015 | [10] 0.057 | [11] 0.039 | [12] 0.011 | [13] 0 | [14] -0.045 | [15] 0.022 | [16] 0.089 | [17] -0.003 | [18] -0.01 | [19] 0.006 | [20] -0.053

IGF2BP1 (UniProt Q9NZI8)
inactive: [1] -0.049 | [2] -0.024 | [3] -0.463 | [4] 0.046 | [5] 0.013 | [6] -0.01 | [7] -0.101 | [8] -0.003 | [9] 0.037 | [10] -0.008 | [11] -0.269 | [12] 0.061 | [13] -0.008 | [14] 0.189 | [15] 0.066 | [16] -0.307 | [17] 0.127 | [18] 0.333 | [19] 0.021 | [20] -0.448

IRGQ (UniProt Q8WZA9)
inactive: [1] 0.017 | [2] 0.019 | [3] 0.114 | [4] -0.04 | [5] -0.036 | [6] 0.04 | [7] 0.032 | [8] -0.016 | [9] 0.019 | [10] 0.008 | [11] 0.002 | [12] -0.019 | [13] 0.011 | [14] -0.105 | [15] -0.072 | [16] -0.016 | [17] 0.087 | [18] 0.003 | [19] 0.031 | [20] -0.02

INAFM2 (UniProt P0DMQ5)
inactive: [1] -0.051 | [2] 0.011 | [3] -0.167 | [4] -0.025 | [5] -0.021 | [6] -0.089 | [7] 0.072 | [8] 0.073 | [9] 0.027 | [10] -0.088 | [11] 0.078 | [12] 0.113 | [13] -0.016 | [14] 0.112 | [15] -0.02 | [16] 0.099 | [17] -0.039 | [18] -0.183 | [19] 0.118 | [20] 0.072

ITPA (UniProt Q9BY32)
inactive: [1] 0.061 | [2] 0.035 | [3] -0.01 | [4] 0.009 | [5] 0.014 | [6] -0.018 | [7] 0.065 | [8] -0.005 | [9] -0.024 | [10] 0.042 | [11] 0.042 | [12] 0.055 | [13] -0.015 | [14] -0.004 | [15] -0.024 | [16] 0.053 | [17] -0.048 | [18] -0.055 | [19] 0.007 | [20] 0.042

IFRD1 (UniProt O00458)
inactive: [1] 0.226 | [2] -0.021 | [3] -0.124 | [4] -0.008 | [5] 0.134 | [6] 0.199 | [7] -0.013 | [8] 0.068 | [9] 0.042 | [10] -0.04 | [11] 0.033 | [12] 0.058 | [13] 0.203 | [14] -0.014 | [15] -0.002 | [16] -0.035 | [17] 0.168 | [18] -0.029
active: [20] -1.05
